For 71 compounds, Hit score results are on record in ChEMBL document CHEMBL4303122, “Identification of potential treatments for COVID-19 through artificial intelligence-enabled phenomic analysis of human cells infected with SARS-CoV-2” (2020).

In all, about 1,600 compounds were measured (“Hit score”: median about 0.13, highest 2% from about 0.46 on). This is one part of the list.

The subject of the test is SARS-CoV-2. In words: Antiviral activity against SARS-CoV-2 (USA-WA1/2020 strain) measured by imaging in HRCE cells at MOI 0.4 after 96 hrs (reported as hit score from 0-1 for on-disease vs off-disease activity: scores >0.6 considered hits). It counts as functional, Homo sapiens.
In the case of `CN1CCN(C2=Nc3ccccc3Oc3ccc(Cl)cc32)CC1` [LOXAPINE], the Hit score is 0.2116.

`COc1c2occc2cc2ccc(=O)oc12` [METHOXSALEN] came in with a Hit score of 0.1698.

On to `N=C(NCCCCCCNC(=N)NC(=N)Nc1ccc(Cl)cc1)NC(=N)Nc1ccc(Cl)cc1` [CHLORHEXIDINE], for which the Hit score stood at 0.08739.

On to `N#Cc1ccc(C(c2ccc(C#N)cc2)n2cncn2)cc1` [LETROZOLE], for which the Hit score is reported as 0.07947.

Take `C[C@H]1[C@H](OC(=O)CCC(=O)O)O[C@@H]2O[C@@]3(C)CC[C@H]4[C@H](C)CC[C@@H]1[C@@]24OO3` [ARTESUNATE]: the Hit score is reported as 0.2142.

Regarding `COc1cc(C(=O)N2CCOCC2)cc(OC)c1OC` [TRIMETOZINE], the Hit score came out at 0.2022.

As for `O=C(O)COc1nn(Cc2ccccc2)c2ccccc12` [BENDAZAC], the Hit score is given as 0.1415.

For `O=C(O)COc1cccc(-c2ocnc2-c2nc(-c3ccccc3)c(-c3ccccc3)o2)c1`, the Hit score amounted to 0.03267.

`O=[N+]([O-])/N=C1\NCCN1Cc1ccc(Cl)nc1` [IMIDACLOPRID] gave a Hit score of 0.158.

`CCc1nc(C(N)=O)c(Nc2ccc(N3CCC(N4CCN(C)CC4)CC3)c(OC)c2)nc1NC1CCOCC1` [GILTERITINIB]: the Hit score came to 0.351.

Compound `O=C(O)c1ccccc1NCCc1ccccc1` [ENFENAMIC ACID] had a Hit score of 0.2813.

`COc1cc2nc(N3CCN(C(=O)C4CCCO4)CC3)nc(N)c2cc1OC` (stereo unspecified) [TERAZOSIN] yielded a Hit score of 0.09742.

For `Nc1ccc(S(=O)(=O)Nc2ccc(Cl)nn2)cc1` [SULFACHLORPYRIDAZINE], the Hit score was determined as 0.07178.

Consider `CC(C)OC(=O)CCC/C=C\C[C@@H]1[C@@H](CC[C@@H](O)CCc2ccccc2)[C@H](O)C[C@@H]1O` [LATANOPROST], for which the Hit score came to 0.04489.

The compound `COc1cc(C)c(/C=C/C(C)=C/C=C/C(C)=C/C(=O)O)c(C)c1C` [ACITRETIN] came in with a Hit score of 0.457.

Turning to `CN(C)CCC=C1c2ccccc2C=Cc2ccccc21` [CYCLOBENZAPRINE], the Hit score is -0.007076.

`CN(C)CCc1c[nH]c2ccc(C[C@H]3COC(=O)N3)cc12` [ZOLMITRIPTAN] showed a Hit score of 0.1454.

In turn, `COc1ccc(-c2noc(CC(=O)O)c2-c2ccc(OC)cc2)cc1` [MOFEZOLAC] gave a Hit score of 0.2188.

In the case of `NS(=O)(=O)c1cc2c(cc1Cl)NCNS2(=O)=O` [HYDROCHLOROTHIAZIDE], the Hit score was 0.03672.

Regarding `C[N+]1(C)CCC(=C(c2ccccc2)c2ccccc2)CC1`, the Hit score came out at 0.06957.

For the compound `C[N+]12CCC(CC1)C(OC(=O)C(O)(c1ccccc1)c1ccccc1)C2` (stereo unspecified), the Hit score was determined as 0.116.

With `Cc1ccc(Cl)c(OCC(O)CNC(C)(C)C)c1` (stereo unspecified) [BUPRANOLOL], the Hit score came out at 0.4669.

`CC[C@]1(O)C[C@H]2CN(CCc3c([nH]c4ccccc34)[C@@](C(=O)OC)(c3cc4c(cc3OC)N(C=O)[C@H]3[C@@](O)(C(=O)OC)[C@H](OC(C)=O)[C@]5(CC)C=CCN6CC[C@]43[C@@H]65)C2)C1` [VINCRISTINE] came in with a Hit score of 0.4904.

`CC(c1cc2ccccc2s1)N(O)C(N)=O` (stereo unspecified) [ZILEUTON] registered a Hit score of 0.2291.

In turn, `C[C@@H]1CN(c2c(F)c(N)c3c(=O)c(C(=O)O)cn(C4CC4)c3c2F)C[C@H](C)N1` [SPARFLOXACIN] returned a Hit score of 0.1623.

`C[C@@H]1O[C@@H]1P(=O)(O)O` [FOSFOMYCIN] gave a Hit score of 0.1171.

`NCc1ccccc1CC(=O)N[C@@H]1C(=O)N2C(C(=O)O)=C(CSc3nnnn3CC(=O)O)CS[C@H]12` [CEFORANIDE] yielded a Hit score of 0.2346.

For the compound `CCN1CCN(C(=O)N[C@@H](C(=O)N[C@@H]2C(=O)N3[C@@H]2SC(C)(C)[C@@H]3C(=O)O)c2ccccc2)C(=O)C1=O` [PIPERACILLIN], the Hit score is 0.2065.

The compound `CC(C)CN(C[C@@H](O)[C@H](Cc1ccccc1)NC(=O)O[C@H]1CCOC1)S(=O)(=O)c1ccc(N)cc1` registered a Hit score of 0.09042.

`COc1cc(C)nc(-n2nc(C)cc2OC)n1` [EPIRIZOLE]: the Hit score turned out to be 0.2407.

The compound `CS(=O)(=O)Nc1ccc([N+](=O)[O-])cc1Oc1ccccc1` [NIMESULIDE] yielded a Hit score of 0.223.

`CCn1cc(C(=O)O)c(=O)c2cc(F)c(N3CCNC(C)C3)c(F)c21` (stereo unspecified) [LOMEFLOXACIN] had a Hit score of 0.1087.

As to `CC(C)(C)OC(=O)N[C@H]1CCCCC/C=C\[C@@H]2C[C@@]2(C(=O)NS(=O)(=O)C2CC2)NC(=O)[C@@H]2C[C@@H](OC(=O)N3Cc4cccc(F)c4C3)CN2C1=O` [DANOPREVIR], the Hit score amounted to 0.1271.

For the compound `CC(=O)OC[C@H]1O[C@@H](n2ccc(=O)[nH]c2=O)[C@H](OC(C)=O)[C@@H]1OC(C)=O` [URIDINE TRIACETATE], the Hit score was found to be 0.05866.

On to `Cc1c(Cl)cccc1Nc1ncccc1C(=O)O` [CLONIXIN], for which the Hit score is 0.1557.

Consider `Cc1nc(Nc2ncc(C(=O)Nc3c(C)cccc3Cl)s2)cc(N2CCN(CCO)CC2)n1.O` [DASATINIB], for which the Hit score is listed as -0.4014.

`Cc1ccc(/C(=C\CN2CCCC2)c2ccccn2)cc1` [TRIPROLIDINE] came in with a Hit score of 0.01384.

`CSCC[C@H](N)C(=O)O` [METHIONINE] returned a Hit score of 0.04747.

As for `CC(C)(C)NCC(O)c1ccccc1Cl` (stereo unspecified) [TULOBUTEROL], the Hit score is on record as -0.01366.

For the compound `C[C@H]1[C@H](NC(=O)/C(=N\OC(C)(C)C(=O)O)c2csc(N)n2)C(=O)N1S(=O)(=O)O` [AZTREONAM], the Hit score was 0.135.

Turning to `CNCCC=C1c2ccccc2CCc2ccccc21` [NORTRIPTYLINE], the Hit score was 0.2268.

`CN(N=O)C(=O)N[C@@H](C=O)[C@@H](O)[C@H](O)[C@H](O)CO` [STREPTOZOCIN]: the Hit score was 0.07116.

`CCc1cc(C(N)=S)ccn1` [ETHIONAMIDE] yielded a Hit score of 0.1784.

For `CC(=O)Nc1c(I)c(NC(C)=O)c(I)c(C(=O)O)c1I` [DIATRIZOIC ACID], the Hit score is on record as -0.01268.

`CCCC(=O)O[C@]1(C(=O)CO)CC[C@H]2[C@@H]3CCC4=CC(=O)CC[C@]4(C)[C@H]3[C@@H](O)C[C@@]21C` [HYDROCORTISONE BUTYRATE]: the Hit score is given as -0.05198.

In turn, `NC(=O)c1ncn([C@@H]2O[C@H](CO)[C@@H](O)[C@H]2O)c1O` [MIZORIBINE] had a Hit score of 0.1019.

`Cc1cn([C@@H]2C[C@@H](O)[C@H](CO)O2)c(=O)[nH]c1=O` [TELBIVUDINE]: the Hit score turned out to be 0.09197.

`CN(C)C(=S)SSC(=S)N(C)C` [THIRAM] registered a Hit score of 0.2497.

With `CC(C)(C)NCC(O)CSc1nc(-c2ccc(C(N)=O)s2)cs1` (stereo unspecified) [AROTINOLOL], the Hit score was determined as 0.3775.

`CCOc1cc2ncc(C#N)c(Nc3ccc(OCc4ccccn4)c(Cl)c3)c2cc1NC(=O)/C=C/CN(C)C` [NERATINIB] had a Hit score of 0.08739.

`CN1CCN(C(c2ccccc2)c2ccc(Cl)cc2)CC1` (stereo unspecified) [CHLORCYCLIZINE] registered a Hit score of 0.05757.

Regarding `CC(C)C[C@H](NC(=O)[C@@H](O)[C@H](N)Cc1ccccc1)C(=O)O` [UBENIMEX], the Hit score is on record as 0.1422.

In turn, `CNC(=C[N+](=O)[O-])NCCSCc1ccc(CN(C)C)o1` [RANITIDINE] returned a Hit score of 0.2229.

`CC(N)Cc1cccc(O)c1` (stereo unspecified) gave a Hit score of 0.2051.

For the compound `COC(=O)C[C@](O)(CCC(C)(C)O)C(=O)O[C@@H]1C(OC)=C[C@]23CCCN2CCc2cc4c(cc2[C@H]13)OCO4` [HARRINGTONINE], the Hit score turned out to be 0.07403.

For the compound `C=C1C[C@@H]2[C@H](CC[C@]3(C)C(=O)CC[C@@H]23)[C@@]2(C)C=CC(=O)C=C12` [EXEMESTANE], the Hit score came out at 0.04062.

Compound `CCOC(=O)Nc1ccc2c(c1)N(C(=O)CCN1CCOCC1)c1ccccc1S2` [MORICIZINE] yielded a Hit score of 0.1084.

With `CNC[C@H](O)c1cccc(O)c1` [PHENYLEPHRINE], the Hit score is recorded as 0.03283.

On to `N[C@@H]1CN(c2c(F)cc3c(=O)c(C(=O)O)cn([C@@H]4C[C@@H]4F)c3c2Cl)CC12CC2` [SITAFLOXACIN ANHYDROUS], for which the Hit score is 0.1303.

`C[C@H]1c2cccc(O)c2C(=O)C2=C(O)[C@]3(O)C(=O)C(C(N)=O)=C(O)[C@@H](N(C)C)[C@@H]3[C@@H](O)[C@@H]21.O` [DOXYCYCLINE]: the Hit score was -0.02175.

In turn, `CN1C(=O)CC(C)(c2ccccc2)C1=O` (stereo unspecified) [METHSUXIMIDE] returned a Hit score of 0.324.

`CCC(=O)NS(=O)(=O)c1ccc(-c2c(-c3ccccc3)noc2C)cc1` [PARECOXIB] had a Hit score of 0.03281.

For `N#C[C@@H]1CCCN1C(=O)CNC12CC3CC(CC(O)(C3)C1)C2` [VILDAGLIPTIN], the Hit score turned out to be 0.2586.

For the compound `C#C[C@]1(O)CC[C@H]2[C@@H]3CCC4=C(CCC(=O)C4)[C@H]3CC[C@@]21C` [NORETHYNODREL], the Hit score is 0.09257.

`CC(C)c1cc2c(cc1S(=O)(=O)O)[C@@]1(C)CCC[C@@](C)(C(=O)O)[C@@H]1CC2` [ECABET] gave a Hit score of 0.1341.

Compound `CCC[C@@H]1C[C@@H](C(=O)N[C@@H]([C@H]2O[C@H](SC)[C@H](OP(=O)(O)O)[C@@H](O)[C@H]2O)[C@H](C)Cl)N(C)C1` [CLINDAMYCIN PHOSPHATE] showed a Hit score of 0.1852.

`COC(=O)c1ccc2c(c1)NC(=O)/C2=C(\Nc1ccc(N(C)C(=O)CN2CCN(C)CC2)cc1)c1ccccc1` [NINTEDANIB] yielded a Hit score of 0.1859.

Turning to `CC(C)C[C@H](NC(=O)CNC(=O)c1cc(Cl)ccc1Cl)B(O)O` [IXAZOMIB], the Hit score is -0.7016.

`CNC(=O)c1c(C)oc2cc(Oc3ncnc4cc(OC)c(OC)cc34)ccc12` [FRUQUINTINIB] showed a Hit score of 0.1378.

For `CCOc1ccccc1C(N)=O` [ETHENZAMIDE], the Hit score was determined as 0.115.

`CN(CCOc1ccc(NS(C)(=O)=O)cc1)CCc1ccc(NS(C)(=O)=O)cc1` [DOFETILIDE] displayed a Hit score of 0.2147.
